# Experimental data reported in the supplement of paper PMC10849652.
# Sequences of proteins named here, by UniProt entry; tags and fusion partners are left off. A change or cut given only in a name is not applied to a line headed by its entry.
# UniProt Q93083: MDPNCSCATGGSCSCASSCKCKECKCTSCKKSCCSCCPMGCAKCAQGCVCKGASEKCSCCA
# UniProt P03928: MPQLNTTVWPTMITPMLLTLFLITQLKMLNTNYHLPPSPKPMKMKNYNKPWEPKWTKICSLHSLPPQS
# UniProt P03897, whole entry, looked up: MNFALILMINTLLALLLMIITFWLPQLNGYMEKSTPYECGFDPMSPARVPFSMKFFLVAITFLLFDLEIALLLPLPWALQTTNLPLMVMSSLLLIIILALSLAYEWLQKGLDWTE
# UniProt Q9NPC7: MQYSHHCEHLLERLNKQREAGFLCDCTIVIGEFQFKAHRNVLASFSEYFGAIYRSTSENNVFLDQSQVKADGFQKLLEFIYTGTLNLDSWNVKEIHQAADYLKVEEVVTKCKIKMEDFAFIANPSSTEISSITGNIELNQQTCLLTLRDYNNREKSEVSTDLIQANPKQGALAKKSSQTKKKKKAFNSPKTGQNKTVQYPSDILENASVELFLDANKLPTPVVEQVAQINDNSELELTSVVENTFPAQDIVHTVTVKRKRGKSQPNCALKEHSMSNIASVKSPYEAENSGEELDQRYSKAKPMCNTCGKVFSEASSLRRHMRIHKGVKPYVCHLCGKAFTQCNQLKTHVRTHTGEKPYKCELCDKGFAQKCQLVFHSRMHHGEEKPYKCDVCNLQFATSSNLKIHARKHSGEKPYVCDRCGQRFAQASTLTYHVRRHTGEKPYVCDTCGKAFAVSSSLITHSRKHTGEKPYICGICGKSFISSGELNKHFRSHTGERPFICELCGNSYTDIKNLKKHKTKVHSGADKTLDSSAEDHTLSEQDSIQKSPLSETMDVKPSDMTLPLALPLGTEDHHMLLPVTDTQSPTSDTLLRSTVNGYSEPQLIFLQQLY
# UniProt Q96H55, whole entry, looked up: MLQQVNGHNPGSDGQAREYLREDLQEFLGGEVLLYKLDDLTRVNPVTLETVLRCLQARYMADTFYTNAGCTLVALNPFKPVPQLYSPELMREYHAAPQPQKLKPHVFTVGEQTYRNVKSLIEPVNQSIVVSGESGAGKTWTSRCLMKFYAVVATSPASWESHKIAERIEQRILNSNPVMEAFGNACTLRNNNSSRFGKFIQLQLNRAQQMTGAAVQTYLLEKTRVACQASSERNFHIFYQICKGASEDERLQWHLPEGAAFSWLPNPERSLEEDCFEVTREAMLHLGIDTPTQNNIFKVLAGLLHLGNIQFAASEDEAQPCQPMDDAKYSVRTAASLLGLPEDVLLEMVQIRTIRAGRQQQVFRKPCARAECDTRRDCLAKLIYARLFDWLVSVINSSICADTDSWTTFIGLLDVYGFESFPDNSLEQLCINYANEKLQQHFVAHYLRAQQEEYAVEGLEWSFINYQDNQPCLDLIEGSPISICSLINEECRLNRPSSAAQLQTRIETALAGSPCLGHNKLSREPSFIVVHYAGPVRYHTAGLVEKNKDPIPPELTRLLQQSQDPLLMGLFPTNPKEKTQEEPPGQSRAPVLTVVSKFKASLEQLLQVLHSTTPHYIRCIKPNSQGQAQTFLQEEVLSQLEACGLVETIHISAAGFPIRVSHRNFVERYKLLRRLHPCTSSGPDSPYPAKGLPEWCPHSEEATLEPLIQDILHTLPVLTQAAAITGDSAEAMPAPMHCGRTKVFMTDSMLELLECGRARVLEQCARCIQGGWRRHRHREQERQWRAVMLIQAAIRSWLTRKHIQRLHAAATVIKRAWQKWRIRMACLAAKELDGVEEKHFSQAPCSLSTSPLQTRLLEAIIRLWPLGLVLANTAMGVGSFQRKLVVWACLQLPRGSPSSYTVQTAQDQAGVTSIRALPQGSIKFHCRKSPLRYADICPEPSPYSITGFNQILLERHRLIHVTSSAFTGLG
# UniProt Q9BT17: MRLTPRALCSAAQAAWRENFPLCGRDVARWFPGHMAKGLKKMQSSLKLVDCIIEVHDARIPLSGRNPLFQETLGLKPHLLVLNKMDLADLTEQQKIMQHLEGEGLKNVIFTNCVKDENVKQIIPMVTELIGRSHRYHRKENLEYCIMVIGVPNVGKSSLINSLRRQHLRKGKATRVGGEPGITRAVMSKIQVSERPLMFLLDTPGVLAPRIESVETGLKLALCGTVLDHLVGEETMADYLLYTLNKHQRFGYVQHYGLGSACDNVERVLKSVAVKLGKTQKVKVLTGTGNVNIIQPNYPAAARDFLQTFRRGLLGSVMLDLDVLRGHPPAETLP
# UniProt Q9NXD2: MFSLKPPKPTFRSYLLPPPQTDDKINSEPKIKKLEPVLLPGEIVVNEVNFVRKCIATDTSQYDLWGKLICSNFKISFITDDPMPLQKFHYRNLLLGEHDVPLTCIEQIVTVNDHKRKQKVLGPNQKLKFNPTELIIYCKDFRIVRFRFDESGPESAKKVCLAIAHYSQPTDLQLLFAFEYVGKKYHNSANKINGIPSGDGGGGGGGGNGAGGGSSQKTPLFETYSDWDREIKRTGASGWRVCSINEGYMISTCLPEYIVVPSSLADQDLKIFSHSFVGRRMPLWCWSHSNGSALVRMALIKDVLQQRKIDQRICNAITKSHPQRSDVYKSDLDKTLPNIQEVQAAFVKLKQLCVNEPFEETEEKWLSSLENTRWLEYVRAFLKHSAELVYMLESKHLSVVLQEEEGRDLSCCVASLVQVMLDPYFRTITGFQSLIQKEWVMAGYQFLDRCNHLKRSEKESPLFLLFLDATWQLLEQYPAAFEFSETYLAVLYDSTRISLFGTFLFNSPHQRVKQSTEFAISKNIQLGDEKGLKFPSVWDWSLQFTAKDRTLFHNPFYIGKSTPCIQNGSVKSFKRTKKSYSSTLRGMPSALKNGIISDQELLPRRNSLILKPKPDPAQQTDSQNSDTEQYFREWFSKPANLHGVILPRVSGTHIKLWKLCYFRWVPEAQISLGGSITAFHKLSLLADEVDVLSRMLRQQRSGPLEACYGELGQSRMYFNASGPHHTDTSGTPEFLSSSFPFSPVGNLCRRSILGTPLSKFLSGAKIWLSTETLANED
# UniProt P84157: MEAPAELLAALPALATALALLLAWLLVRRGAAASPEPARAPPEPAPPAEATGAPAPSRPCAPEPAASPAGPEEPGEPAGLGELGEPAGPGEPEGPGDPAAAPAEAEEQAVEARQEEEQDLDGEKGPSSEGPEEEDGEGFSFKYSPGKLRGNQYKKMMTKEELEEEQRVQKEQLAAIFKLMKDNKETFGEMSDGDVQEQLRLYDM
# UniProt Q8TAX7: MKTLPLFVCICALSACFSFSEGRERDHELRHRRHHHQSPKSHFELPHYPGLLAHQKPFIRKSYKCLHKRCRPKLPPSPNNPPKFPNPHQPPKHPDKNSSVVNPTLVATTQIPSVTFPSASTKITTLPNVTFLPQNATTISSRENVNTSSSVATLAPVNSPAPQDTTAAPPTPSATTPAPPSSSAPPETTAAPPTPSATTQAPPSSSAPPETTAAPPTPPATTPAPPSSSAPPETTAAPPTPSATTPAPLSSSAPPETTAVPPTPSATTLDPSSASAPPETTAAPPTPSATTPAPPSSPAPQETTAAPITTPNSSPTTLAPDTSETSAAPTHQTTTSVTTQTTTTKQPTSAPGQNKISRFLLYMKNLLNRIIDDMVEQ
# UniProt Q9UJ68: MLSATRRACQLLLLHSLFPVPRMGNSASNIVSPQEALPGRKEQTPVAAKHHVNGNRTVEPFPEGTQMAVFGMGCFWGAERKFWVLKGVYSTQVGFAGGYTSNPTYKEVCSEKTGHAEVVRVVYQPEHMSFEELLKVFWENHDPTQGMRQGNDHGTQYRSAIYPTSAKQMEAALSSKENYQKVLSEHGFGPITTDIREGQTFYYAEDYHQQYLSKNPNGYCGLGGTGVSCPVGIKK
# UniProt Q9BRK3: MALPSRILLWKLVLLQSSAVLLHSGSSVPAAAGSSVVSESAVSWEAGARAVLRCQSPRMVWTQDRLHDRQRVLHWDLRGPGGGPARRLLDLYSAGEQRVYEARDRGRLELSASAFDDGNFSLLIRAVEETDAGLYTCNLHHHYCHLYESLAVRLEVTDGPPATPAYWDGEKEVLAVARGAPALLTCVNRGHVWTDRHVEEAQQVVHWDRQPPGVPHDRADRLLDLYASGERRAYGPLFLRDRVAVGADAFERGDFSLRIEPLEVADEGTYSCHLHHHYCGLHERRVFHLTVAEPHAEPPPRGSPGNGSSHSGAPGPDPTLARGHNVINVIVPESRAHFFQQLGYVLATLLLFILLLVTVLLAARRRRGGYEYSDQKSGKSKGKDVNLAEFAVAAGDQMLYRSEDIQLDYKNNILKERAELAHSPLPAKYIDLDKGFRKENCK
# UniProt Q9BQG0: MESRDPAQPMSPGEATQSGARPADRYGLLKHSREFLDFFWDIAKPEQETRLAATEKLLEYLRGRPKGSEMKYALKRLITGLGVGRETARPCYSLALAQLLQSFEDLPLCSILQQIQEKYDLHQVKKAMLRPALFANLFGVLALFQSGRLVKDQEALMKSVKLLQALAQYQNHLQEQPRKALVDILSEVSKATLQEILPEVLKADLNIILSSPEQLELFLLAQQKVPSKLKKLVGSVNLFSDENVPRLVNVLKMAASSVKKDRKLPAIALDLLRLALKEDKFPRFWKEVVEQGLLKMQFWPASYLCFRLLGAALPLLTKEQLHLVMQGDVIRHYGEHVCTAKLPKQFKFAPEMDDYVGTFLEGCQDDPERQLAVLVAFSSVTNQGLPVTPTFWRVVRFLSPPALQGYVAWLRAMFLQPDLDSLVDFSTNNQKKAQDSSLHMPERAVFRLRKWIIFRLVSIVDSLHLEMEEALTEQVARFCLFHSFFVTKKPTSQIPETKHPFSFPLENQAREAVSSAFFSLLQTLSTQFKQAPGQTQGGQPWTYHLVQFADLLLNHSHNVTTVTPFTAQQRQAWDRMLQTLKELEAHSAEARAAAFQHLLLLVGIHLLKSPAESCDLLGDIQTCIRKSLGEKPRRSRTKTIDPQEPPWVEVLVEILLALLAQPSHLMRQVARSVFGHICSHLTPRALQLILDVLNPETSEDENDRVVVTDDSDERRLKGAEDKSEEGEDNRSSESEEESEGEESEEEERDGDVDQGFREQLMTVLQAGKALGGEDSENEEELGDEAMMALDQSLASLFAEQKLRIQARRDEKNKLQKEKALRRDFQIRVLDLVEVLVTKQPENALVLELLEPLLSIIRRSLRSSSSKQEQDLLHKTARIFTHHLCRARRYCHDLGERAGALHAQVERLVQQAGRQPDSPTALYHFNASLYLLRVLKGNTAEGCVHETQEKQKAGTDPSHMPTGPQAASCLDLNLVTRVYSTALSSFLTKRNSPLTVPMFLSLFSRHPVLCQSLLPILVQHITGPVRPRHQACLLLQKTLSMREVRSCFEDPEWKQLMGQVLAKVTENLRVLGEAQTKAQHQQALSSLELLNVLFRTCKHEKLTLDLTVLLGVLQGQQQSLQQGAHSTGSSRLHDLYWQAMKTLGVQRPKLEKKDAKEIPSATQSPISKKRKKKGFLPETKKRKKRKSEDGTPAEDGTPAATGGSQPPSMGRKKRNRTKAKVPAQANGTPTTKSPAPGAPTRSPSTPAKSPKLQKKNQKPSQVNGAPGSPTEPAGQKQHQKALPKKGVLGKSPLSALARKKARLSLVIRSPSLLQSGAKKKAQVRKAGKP
# UniProt Q99836, whole entry, looked up: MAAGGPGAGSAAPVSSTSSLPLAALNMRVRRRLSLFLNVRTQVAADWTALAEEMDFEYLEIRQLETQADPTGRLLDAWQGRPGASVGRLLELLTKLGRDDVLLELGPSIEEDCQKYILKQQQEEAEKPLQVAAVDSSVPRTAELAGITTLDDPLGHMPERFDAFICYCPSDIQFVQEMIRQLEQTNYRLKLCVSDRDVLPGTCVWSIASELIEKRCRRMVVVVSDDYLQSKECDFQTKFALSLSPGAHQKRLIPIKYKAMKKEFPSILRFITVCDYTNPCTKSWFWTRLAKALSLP
# UniProt P46199: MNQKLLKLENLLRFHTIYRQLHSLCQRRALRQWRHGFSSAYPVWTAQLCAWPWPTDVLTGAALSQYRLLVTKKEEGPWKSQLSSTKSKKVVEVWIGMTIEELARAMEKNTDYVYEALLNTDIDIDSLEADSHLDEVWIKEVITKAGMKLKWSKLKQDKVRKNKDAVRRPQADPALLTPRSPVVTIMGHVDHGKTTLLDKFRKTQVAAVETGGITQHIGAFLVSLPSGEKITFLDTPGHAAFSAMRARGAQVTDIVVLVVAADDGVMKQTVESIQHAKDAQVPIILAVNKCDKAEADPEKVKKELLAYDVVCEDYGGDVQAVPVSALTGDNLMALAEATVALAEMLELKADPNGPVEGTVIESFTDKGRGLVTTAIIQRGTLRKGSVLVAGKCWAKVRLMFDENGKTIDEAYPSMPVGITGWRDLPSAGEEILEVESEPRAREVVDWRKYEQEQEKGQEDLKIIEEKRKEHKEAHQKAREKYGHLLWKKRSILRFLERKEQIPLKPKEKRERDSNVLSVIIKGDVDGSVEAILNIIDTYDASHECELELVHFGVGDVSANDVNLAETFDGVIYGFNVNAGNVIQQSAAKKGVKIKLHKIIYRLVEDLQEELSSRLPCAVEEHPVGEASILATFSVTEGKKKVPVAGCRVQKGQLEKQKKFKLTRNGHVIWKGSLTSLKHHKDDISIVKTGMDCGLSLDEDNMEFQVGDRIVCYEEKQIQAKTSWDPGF
# The list shows a part of the results.
# Key:
# Assay in all cases: log2 fold change, soluble protein after heating vs DMSO (PISA); higher = thermal stabilisation; K562 cells, 10 uM, 30 min; active = over 0.2 and 3.5 SD of the protein, either way, in both replicates (recomputed)
# saracatinib = compound: CN1CCN(CCOc2cc(OC3CCOCC3)c3c(Nc4c(Cl)ccc5c4OCO5)ncnc3c2)CC1 [saracatinib]
# Outline: (§1)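 K562 cells (2×10^6 cells/mL) were treated with 10 μM compound for 30 min, and aliquots were heated for 3 min over 48°C-58°C. Pooled aliquots were extracted in PBS with 0.5% NP-40 at 4°C, and the supernatant after 21,000xg for 90 min was measured by TMTpro 16plex LC-MS/MS with channel sums equalised. Reported thermal stability, relative to control samples and from duplicates, is a log2 fold change.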
# Tubastatin A = compound: CN1CCc2c(c3ccccc3n2Cc2ccc(C(=O)NO)cc2)C1 [Tubastatin A]
# Outline: as §1
# [1] = compound: CNC(=O)C1=CC=CC=C1NC2=NC(=NC=C2Cl)NC3=C(C=C(C=C3)N4CCOCC4)OC
# Outline: as §1
# rucaparib = compound: CNCc1ccc(-c2[nH]c3cc(F)cc4c3c2CCNC4=O)cc1 [rucaparib]
# Outline: as §1
# [2] = compound: CNc1nc(-c2ccc3c(N)n[nH]c3c2)cc(N2C[C@@H](C(=O)NC3CCCCC3)CC[C@H]2C)n1
# Outline: as §1
# encorafenib = compound: COC(=O)N[C@@H](C)CNc1nccc(-c2cn(C(C)C)nc2-c2cc(Cl)cc(NS(C)(=O)=O)c2F)n1 [encorafenib]
# Outline: as §1
# idasanutlin = compound: COc1cc(C(=O)O)ccc1NC(=O)[C@@H]1N[C@@H](CC(C)(C)C)[C@](C#N)(c2ccc(Cl)cc2F)[C@H]1c1cccc(Cl)c1F [idasanutlin]
# Outline: as §1
# alisertib = compound: COc1cc(Nc2ncc3c(n2)-c2ccc(Cl)cc2C(c2c(F)cccc2OC)=NC3)ccc1C(=O)O [alisertib]
# Outline: as §1
# [3] = compound: COc1cc2nc(-c3cc(F)ccc3O)nc(N[C@@H]3CNC[C@H]3C(C)(C)O)c2cc1OC
# Outline: as §1
# gefitinib = compound: COc1cc2ncnc(Nc3ccc(F)c(Cl)c3)c2cc1OCCCN1CCOCC1 [gefitinib]
# Outline: as §1
# [4] = compound: COc1cccc2cc(-c3nc([C@H]4CC[C@H](C(=O)O)CC4)n4ncnc(N)c34)[nH]c12
# Outline: as §1
# lapatinib = compound: CS(=O)(=O)CCNCc1ccc(-c2ccc3ncnc(Nc4ccc(OCc5cccc(F)c5)c(Cl)c4)c3c2)o1 [lapatinib]
# Outline: as §1
# pictilisib = compound: CS(=O)(=O)N1CCN(Cc2cc3nc(-c4cccc5[nH]ncc45)nc(N4CCOCC4)c3s2)CC1 [pictilisib]
# Outline: as §1
# sotrastaurin = compound: CN1CCN(c2nc(C3=C(c4c[nH]c5ccccc45)C(=O)NC3=O)c3ccccc3n2)CC1 [sotrastaurin]
# Outline: as §1
# filanesib = compound: CON(C)C(=O)N1N=C(c2cc(F)ccc2F)S[C@@]1(CCCN)c1ccccc1 [filanesib]
# Outline: as §1
# [5] = compound: COC1=CC=C(C=C1)CN2C=CC3=C2C=C(C=C3)C(=O)NO
# Outline: as §1
# defactinib = compound: CNC(=O)c1ccc(Nc2ncc(C(F)(F)F)c(NCc3nccnc3N(C)S(C)(=O)=O)n2)cc1 [defactinib]
# Outline: as §1
# [6] = compound: COC(=O)[C@H](CCSC)NC(=O)C1=C(C=C(C=C1)NC[C@H](CS)N)C2=CC=CC=C2
# Outline: as §1
# zotarolimus = compound: CO[C@H]1C[C@@H]2CC[C@@H](C)[C@@](O)(O2)C(=O)C(=O)N2CCCC[C@H]2C(=O)O[C@H]([C@H](C)C[C@@H]2CC[C@H](n3cnnn3)[C@H](OC)C2)CC(=O)[C@H](C)/C=C(\C)[C@@H](O)[C@@H](OC)C(=O)[C@H](C)C[C@H](C)/C=C/C=C/C=C/1C [zotarolimus]
# Outline: as §1
# alvocidib = compound: CN1CC[C@H](c2c(O)cc(O)c3c(=O)cc(-c4ccccc4Cl)oc23)[C@H](O)C1 [alvocidib]
# Outline: as §1
target,measurement,setting,value
MT1L (UniProt Q93083),log2 fold change,saracatinib,inactive: 0.264
same,log2 fold change,Tubastatin A,inactive: -0.27
same,log2 fold change,[1],inactive: 0.004
same,log2 fold change,rucaparib,inactive: -0.009
same,log2 fold change,[2],inactive: 0.096
same,log2 fold change,encorafenib,inactive: 0.066
same,log2 fold change,idasanutlin,inactive: 0.392
same,log2 fold change,alisertib,inactive: 0.123
same,log2 fold change,[3],inactive: -0.323
same,log2 fold change,gefitinib,inactive: -0.082
same,log2 fold change,[4],inactive: 0.196
same,log2 fold change,lapatinib,inactive: 0.038
same,log2 fold change,pictilisib,inactive: 0.07
MTRF1 (UniProt O75570),log2 fold change,sotrastaurin,inactive: -0.068
same,log2 fold change,filanesib,inactive: -0.179
same,log2 fold change,idasanutlin,inactive: 0.11
MT-ATP8 (UniProt P03928),log2 fold change,sotrastaurin,inactive: 0.101
same,log2 fold change,Tubastatin A,inactive: -0.004
same,log2 fold change,[1],inactive: 0.107
same,log2 fold change,rucaparib,inactive: 0.102
same,log2 fold change,encorafenib,inactive: -0.153
same,log2 fold change,[5],inactive: 0.103
same,log2 fold change,filanesib,inactive: 0.005
same,log2 fold change,idasanutlin,inactive: 0.038
same,log2 fold change,alisertib,inactive: 0.044
same,log2 fold change,gefitinib,inactive: -0.017
same,log2 fold change,[4],inactive: 0.118
same,log2 fold change,pictilisib,inactive: 0.076
MT-ND3 (UniProt P03897),log2 fold change,[1],inactive: -0.17
same,log2 fold change,[5],inactive: 0.047
same,log2 fold change,gefitinib,inactive: 0.294
MTDH (UniProt E5RJU9),log2 fold change,[5],inactive: 0.101
MYNN (UniProt Q9NPC7),log2 fold change,sotrastaurin,inactive: 0.048
same,log2 fold change,filanesib,inactive: 0.184
MYO19 (UniProt Q96H55),log2 fold change,saracatinib,inactive: -0.066
same,log2 fold change,[1],inactive: -0.046
same,log2 fold change,defactinib,inactive: 0.093
same,log2 fold change,[2],inactive: 0.09
same,log2 fold change,[6],inactive: 0.103
same,log2 fold change,[5],inactive: -0.083
same,log2 fold change,zotarolimus,inactive: 0.071
same,log2 fold change,idasanutlin,inactive: -0.116
same,log2 fold change,[3],inactive: 0.081
same,log2 fold change,gefitinib,inactive: 0.024
same,log2 fold change,lapatinib,inactive: 0.276
same,log2 fold change,pictilisib,active: 0.567
MT-CO1 (UniProt P00395),log2 fold change,sotrastaurin,inactive: 0.022
same,log2 fold change,alvocidib,inactive: -0.04
same,log2 fold change,Tubastatin A,inactive: -0.146
same,log2 fold change,[1],inactive: 0.051
same,log2 fold change,defactinib,inactive: -0.004
same,log2 fold change,rucaparib,inactive: -0.074
same,log2 fold change,encorafenib,inactive: -0.029
same,log2 fold change,[6],inactive: 0.031
same,log2 fold change,[5],inactive: 0.003
same,log2 fold change,filanesib,inactive: -0.131
same,log2 fold change,zotarolimus,inactive: 0.112
same,log2 fold change,idasanutlin,inactive: -0.075
same,log2 fold change,alisertib,inactive: -0.005
same,log2 fold change,[3],inactive: -0.004
same,log2 fold change,gefitinib,inactive: 0.023
same,log2 fold change,[4],inactive: 0.068
same,log2 fold change,lapatinib,inactive: -0.111
MTG1 (UniProt Q9BT17),log2 fold change,saracatinib,inactive: 0.007
same,log2 fold change,alvocidib,inactive: 0.114
same,log2 fold change,Tubastatin A,inactive: 0.153
same,log2 fold change,[1],inactive: -0.002
same,log2 fold change,defactinib,inactive: -0.06
same,log2 fold change,[2],inactive: 0.025
same,log2 fold change,[6],inactive: 0
same,log2 fold change,[5],inactive: 0.13
same,log2 fold change,zotarolimus,inactive: 0.041
same,log2 fold change,idasanutlin,inactive: 0.035
same,log2 fold change,alisertib,inactive: -0.014
same,log2 fold change,[3],inactive: 0.08
same,log2 fold change,gefitinib,inactive: -0.01
same,log2 fold change,[4],inactive: -0.286
same,log2 fold change,lapatinib,inactive: 0.05
same,log2 fold change,pictilisib,inactive: 0.136
MYO1B (UniProt O43795),log2 fold change,defactinib,inactive: -0.061
same,log2 fold change,[6],inactive: 0.181
same,log2 fold change,pictilisib,inactive: -0.229
MTMR10 (UniProt Q9NXD2),log2 fold change,sotrastaurin,inactive: 0.08
same,log2 fold change,[5],inactive: -0.223
same,log2 fold change,filanesib,inactive: -0.029
same,log2 fold change,alisertib,inactive: -0.008
same,log2 fold change,[3],inactive: 0.095
same,log2 fold change,gefitinib,inactive: -0.131
same,log2 fold change,[4],inactive: 0.071
same,log2 fold change,lapatinib,inactive: -0.171
MXRA7 isoform 3 (UniProt P84157),log2 fold change,[3],inactive: 0.077
same,log2 fold change,lapatinib,inactive: -0.27
MTHFSD (UniProt Q2M296),log2 fold change,saracatinib,inactive: -0.187
same,log2 fold change,alvocidib,inactive: 0.213
same,log2 fold change,Tubastatin A,inactive: -0.002
same,log2 fold change,[2],inactive: 0.034
same,log2 fold change,zotarolimus,inactive: -0.018
same,log2 fold change,idasanutlin,inactive: 0.162
same,log2 fold change,alisertib,inactive: -0.041
same,log2 fold change,[4],inactive: 0.001
MRPS36 (UniProt D6R941),log2 fold change,sotrastaurin,inactive: 0.216
same,log2 fold change,filanesib,inactive: 0.304
same,log2 fold change,gefitinib,inactive: 0.062
MUC7 (UniProt Q8TAX7),log2 fold change,sotrastaurin,inactive: 0.054
same,log2 fold change,filanesib,inactive: 0.671
same,log2 fold change,gefitinib,inactive: 0.172
MTSS1 isoform 5 (UniProt O43312),log2 fold change,Tubastatin A,inactive: -0.002
same,log2 fold change,defactinib,inactive: -0.221
same,log2 fold change,[6],inactive: -0.089
same,log2 fold change,idasanutlin,inactive: 0.009
same,log2 fold change,alisertib,inactive: -0.196
same,log2 fold change,[3],inactive: 0.066
same,log2 fold change,[4],inactive: 0.171
same,log2 fold change,lapatinib,inactive: 0.075
MSRA (UniProt Q9UJ68),log2 fold change,saracatinib,inactive: -0.207
same,log2 fold change,[2],inactive: 0.079
same,log2 fold change,[3],inactive: -0.244
same,log2 fold change,lapatinib,inactive: 0.118
MXRA8 isoform 2 (UniProt Q9BRK3),log2 fold change,sotrastaurin,inactive: -0.006
same,log2 fold change,alvocidib,inactive: 0
same,log2 fold change,Tubastatin A,inactive: 0.023
same,log2 fold change,[1],inactive: -0.041
same,log2 fold change,defactinib,inactive: 0.083
same,log2 fold change,[6],inactive: 0.105
same,log2 fold change,[5],inactive: -0.472
same,log2 fold change,filanesib,inactive: -0.076
same,log2 fold change,zotarolimus,inactive: 0.017
same,log2 fold change,idasanutlin,inactive: 0.173
same,log2 fold change,alisertib,inactive: -0.264
same,log2 fold change,[4],inactive: 0.083
MYBBP1A isoform 2 (UniProt Q9BQG0),log2 fold change,saracatinib,inactive: 0.063
same,log2 fold change,alvocidib,inactive: -0.046
same,log2 fold change,Tubastatin A,inactive: 0.402
same,log2 fold change,[1],inactive: -0.138
same,log2 fold change,rucaparib,inactive: 0.384
same,log2 fold change,[2],inactive: 0.069
same,log2 fold change,encorafenib,inactive: 0.615
same,log2 fold change,[5],inactive: 0
same,log2 fold change,zotarolimus,inactive: 0.003
same,log2 fold change,idasanutlin,inactive: 0.459
same,log2 fold change,gefitinib,inactive: -0.072
same,log2 fold change,pictilisib,inactive: -0.083
MRPS16 (UniProt Q9Y3D3),log2 fold change,sotrastaurin,inactive: -0.039
same,log2 fold change,Tubastatin A,inactive: 0.008
same,log2 fold change,[1],inactive: -0.115
same,log2 fold change,defactinib,inactive: 0.043
same,log2 fold change,rucaparib,inactive: 0.084
same,log2 fold change,encorafenib,inactive: 0.138
same,log2 fold change,[6],inactive: 0
same,log2 fold change,[5],inactive: -0.102
same,log2 fold change,filanesib,inactive: 0.044
same,log2 fold change,zotarolimus,inactive: 0.04
same,log2 fold change,idasanutlin,active: -0.348
same,log2 fold change,alisertib,inactive: 0.02
same,log2 fold change,[3],inactive: -0.054
same,log2 fold change,gefitinib,inactive: -0.045
same,log2 fold change,[4],inactive: -0.011
same,log2 fold change,lapatinib,inactive: 0.039
same,log2 fold change,pictilisib,inactive: -0.03
MYD88 isoform 6 (UniProt Q99836),log2 fold change,sotrastaurin,inactive: -0.092
same,log2 fold change,defactinib,inactive: -0.085
same,log2 fold change,[6],inactive: -0.02
same,log2 fold change,[5],inactive: -0.105
same,log2 fold change,filanesib,inactive: 0.087
same,log2 fold change,idasanutlin,inactive: -0.127
same,log2 fold change,alisertib,inactive: -0.156
same,log2 fold change,[3],inactive: -0.165
same,log2 fold change,gefitinib,inactive: -0.094
same,log2 fold change,[4],inactive: -0.658
same,log2 fold change,lapatinib,inactive: 0.389
same,log2 fold change,pictilisib,inactive: -0.06
MTIF2 (UniProt P46199),log2 fold change,sotrastaurin,inactive: -0.073
same,log2 fold change,filanesib,inactive: 0.21

# 33 successive records out of the list so far, for reference:
target,measurement,setting,value
MT-CO1 (UniProt P00395),log2 fold change,Tubastatin A,inactive: -0.146
same,log2 fold change,[1],inactive: 0.051
same,log2 fold change,defactinib,inactive: -0.004
same,log2 fold change,rucaparib,inactive: -0.074
same,log2 fold change,encorafenib,inactive: -0.029
same,log2 fold change,[6],inactive: 0.031
same,log2 fold change,[5],inactive: 0.003
same,log2 fold change,filanesib,inactive: -0.131
same,log2 fold change,zotarolimus,inactive: 0.112
same,log2 fold change,idasanutlin,inactive: -0.075
same,log2 fold change,alisertib,inactive: -0.005
same,log2 fold change,[3],inactive: -0.004
same,log2 fold change,gefitinib,inactive: 0.023
same,log2 fold change,[4],inactive: 0.068
same,log2 fold change,lapatinib,inactive: -0.111
MTG1 (UniProt Q9BT17),log2 fold change,saracatinib,inactive: 0.007
same,log2 fold change,alvocidib,inactive: 0.114
same,log2 fold change,Tubastatin A,inactive: 0.153
same,log2 fold change,[1],inactive: -0.002
same,log2 fold change,defactinib,inactive: -0.06
same,log2 fold change,[2],inactive: 0.025
same,log2 fold change,[6],inactive: 0
same,log2 fold change,[5],inactive: 0.13
same,log2 fold change,zotarolimus,inactive: 0.041
same,log2 fold change,idasanutlin,inactive: 0.035
same,log2 fold change,alisertib,inactive: -0.014
same,log2 fold change,[3],inactive: 0.08
same,log2 fold change,gefitinib,inactive: -0.01
same,log2 fold change,[4],inactive: -0.286
same,log2 fold change,lapatinib,inactive: 0.05
same,log2 fold change,pictilisib,inactive: 0.136
MYO1B (UniProt O43795),log2 fold change,defactinib,inactive: -0.061
same,log2 fold change,[6],inactive: 0.181
